Test results taken from patent US20090042993A1, “IDENTIFICATION OF NOVEL POST-TRANSLATIONAL PROTEIN MODIFICATIONS” (priority 2007, published 2009).
These are yes or no findings as the source states them, for the method shown. Some binding calls cover weakened binding; strength is not graded here.

Target: BACE1 (β-site APP cleaving enzyme 1), native form BACE1WT (human), P56817
Test: BACE1 immunopurified from total cell lysates, Western blot under reducing and non-reducing conditions
Settings: remark: other sources report otherwise

binding: binds
B1: BACE1 (β-site APP cleaving enzyme 1), native form BACE1WT, P56817 46-501 (enzyme, human, UniProt P56817 46-501, looked up)
chain: ETDEEPEEPGRRGSFVEMVDNLRGKSGQGYYVEMTVGSPPQTLNILVDTGSSNFAVGAAPHPFLHRYYQRQLSSTYRDLRKGVYVPYTQGKWEGELGTDLVSIPHGPNVTVRANIAAITESDKFFINGSNWEGILGLAYAEIARPDDSLEPFFDSLVKQTHVPNLFSLQLCGAGFPLNQSEVLASVGGSMIIGGIDHSLYTGSLWYTPIRREWYYEVIIVRVEINGQDLKMDCKEYNYDKSIVDSGTTNLRLPKKVFEAAVKSIKAASSTEKFPDGFWLGEQLVCWQAGTTPWNIFPVISLYLMGEVTNQSFRITILPQQYLRPVEDVATSQDDCYKFAISQSSTGTVMGAVIMEGFYVVFDRARKRIGFAVSACHVHDEFRTAAVEGPFVTLDMEDCGYNIPQTDESTLMTIAYVMAAICALFMLPLCLMVCQWRCLRCLRQQHDDFADDISLLK
